Drawing on patent US12076312B2, “Repurposing anti-androgen therapy for COVID-19 and immunotherapy” (Wisconsin Alumni Research Foundation, priority 2021, dated 2024), this text covers EC50 for one molecule.

Usually EC50 stands for the concentration that produces a half-maximal response. Lower therefore signals higher potency in that assay.

What all share (assay): cells
One experiment concerns NCI-H222B. As to conditions: Hec50, 72 h.
The test system of another experiment is NCI-H226. Particulars: Homo sapiens, NCI-H226, 72 h.
The test system of the next experiment is NCI-H358. As to conditions: Homo sapiens, NCI-H358, 72 h.
The test system of the next experiment is NCI-H460. Particulars: Homo sapiens, NCI-H460, 72 h.
The next experiment has as its system NCI-H520. As to conditions: Homo sapiens, NCI-H520, 72 h.
A further experiment relates to NCI-H1299. Particulars: Homo sapiens, NCI-H1299, 72 h.
A further experiment relates to NCI-H1650. Particulars: Homo sapiens, NCI-H1650, 72 h.
Another experiment deals with NCI-H1975. As to conditions: Homo sapiens, NCI-H1975, 72 h.
A further experiment deals with NCI-H3122. Particulars: Homo sapiens, NCI-H3122, 72 h.

SMILES strings stand for the structures.

On to `CNC(=O)c1ccc(N2C(=S)N(c3ccc(C#N)c(C(F)(F)F)c3)C(=O)C2(C)C)cc1F` [enzalutamide], for which the 50% effective concentration (EC50) was 68 µM in the experiment on NCI-H222B; 60.4 µM with NCI-H226; 66.9 µM in the experiment with NCI-H358; 68.7 µM with NCI-H460; 90 µM in the experiment on NCI-H520; 34.2 µM with NCI-H1299. Besides, the EC50 is 67.1 µM with NCI-H1650, 69.5 µM in the experiment with NCI-H1975 and 17.3 µM in the experiment on NCI-H3122.
